{"source": "patent US11826347B2", "about": "“Anesthetic composition and method of anesthetizing the eye” (priority 2018, dated 2023)", "test": "Ocular biodistribution / pharmacokinetics study", "conditions": "8% articaine topical, two drops of 35 μL/eye", "note": "At least one read-out could not be matched to a standard name with certainty.", "data": [{"substance": "Articainic acid", "values": [{"measurement": "Cmax", "setting": "bulbar conjunctiva", "value": "29,100 ng/g"}, {"measurement": "Cmax", "setting": "cornea", "value": "53,500 ng/g"}, {"measurement": "Cmax", "setting": "iris-ciliary body", "value": "12,600 ng/g"}, {"measurement": "Cmax", "setting": "palpebral conjunctiva", "value": "71,100 ng/g"}]}]}
